{"sequences": {"note": "Chains of the proteins cited; added tags and fusions are not shown. Lines headed by an entry give the natural chain unless they say otherwise; changes in a name come on top.", "UniProt Q12791": "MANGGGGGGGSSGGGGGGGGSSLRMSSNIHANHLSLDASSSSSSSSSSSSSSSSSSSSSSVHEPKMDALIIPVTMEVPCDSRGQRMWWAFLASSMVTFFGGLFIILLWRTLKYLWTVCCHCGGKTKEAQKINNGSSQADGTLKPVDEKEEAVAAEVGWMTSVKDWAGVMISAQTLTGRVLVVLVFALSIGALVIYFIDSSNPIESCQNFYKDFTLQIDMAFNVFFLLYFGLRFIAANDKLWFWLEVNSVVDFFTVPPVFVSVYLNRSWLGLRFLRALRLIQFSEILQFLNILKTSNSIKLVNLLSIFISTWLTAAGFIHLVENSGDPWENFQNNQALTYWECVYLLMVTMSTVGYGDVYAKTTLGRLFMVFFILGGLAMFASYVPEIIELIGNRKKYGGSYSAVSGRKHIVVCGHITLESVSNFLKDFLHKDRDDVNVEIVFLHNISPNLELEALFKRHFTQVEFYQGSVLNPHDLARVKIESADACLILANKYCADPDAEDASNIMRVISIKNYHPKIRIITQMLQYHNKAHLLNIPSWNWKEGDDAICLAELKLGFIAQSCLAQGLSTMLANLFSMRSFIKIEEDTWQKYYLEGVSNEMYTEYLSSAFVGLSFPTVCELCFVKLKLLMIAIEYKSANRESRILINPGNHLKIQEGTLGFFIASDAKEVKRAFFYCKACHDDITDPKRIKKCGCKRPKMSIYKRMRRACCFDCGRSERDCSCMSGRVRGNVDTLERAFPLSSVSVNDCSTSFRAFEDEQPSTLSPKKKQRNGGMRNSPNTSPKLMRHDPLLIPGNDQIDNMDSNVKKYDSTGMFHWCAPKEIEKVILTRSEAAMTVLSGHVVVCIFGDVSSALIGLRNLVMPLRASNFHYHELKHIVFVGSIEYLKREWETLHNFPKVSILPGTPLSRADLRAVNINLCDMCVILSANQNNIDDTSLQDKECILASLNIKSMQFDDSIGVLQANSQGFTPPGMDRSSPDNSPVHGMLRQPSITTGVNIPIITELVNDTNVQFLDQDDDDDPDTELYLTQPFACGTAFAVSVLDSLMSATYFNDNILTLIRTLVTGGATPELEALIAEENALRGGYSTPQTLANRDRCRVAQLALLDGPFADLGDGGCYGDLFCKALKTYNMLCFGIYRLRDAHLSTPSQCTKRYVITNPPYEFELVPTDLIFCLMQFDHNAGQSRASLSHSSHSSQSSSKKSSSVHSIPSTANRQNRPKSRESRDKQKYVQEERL"}, "source": "patent US20090111868A1", "about": "(priority 2004, published 2009)", "origin": "cited, not measured here", "molecular_target": "BKCa current (Homo sapiens, UniProt Q12791)", "conditions": "vascular and non-vascular smooth muscle; cited from earlier work", "note": "Some entries share one result that the patent states for a list of compounds. For at least one compound, name, drawing or mass did not settle the structure.", "data": [{"smiles": "O=c1[nH]c2cc(C(F)(F)F)ccc2n1-c1cc(Cl)ccc1O", "note": "[NS004]", "values": [{"measurement": "concentration activating BKCa current", "value": "10 to 30", "unit": "µM"}]}]}
